Assay results published in publication PMC4191414.
These are yes or no findings as the source states them, for the method shown. In cells and extracts the contact can be indirect. Some entries that bind do so weakly or less than the wild type.

Target: T1, checkpoint kinase 1 (human (endogenous in HEK 293T)) (UniProt O14757)
T1 sequence: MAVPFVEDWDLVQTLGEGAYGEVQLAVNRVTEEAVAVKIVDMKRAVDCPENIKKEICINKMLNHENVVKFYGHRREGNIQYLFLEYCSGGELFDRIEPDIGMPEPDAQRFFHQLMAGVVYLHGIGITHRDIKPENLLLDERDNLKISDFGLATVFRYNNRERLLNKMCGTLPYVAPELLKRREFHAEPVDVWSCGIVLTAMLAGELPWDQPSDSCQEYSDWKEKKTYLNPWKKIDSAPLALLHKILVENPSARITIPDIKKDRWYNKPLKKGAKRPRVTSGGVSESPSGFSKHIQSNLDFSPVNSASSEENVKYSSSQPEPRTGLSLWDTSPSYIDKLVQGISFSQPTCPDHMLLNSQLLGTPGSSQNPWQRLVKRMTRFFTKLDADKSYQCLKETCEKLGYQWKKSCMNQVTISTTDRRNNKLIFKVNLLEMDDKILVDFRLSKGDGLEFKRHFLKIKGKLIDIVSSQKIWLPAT
Assay: co-IP; endogenous proteins from 293T cell lysate (3 mg, pre-cleared); immunoprecipitated with antibodies against CHK1 or NEK9 or mouse IgG on protein G beads, 4 h at 4°C; 0.375% CHAPS lysis buffer (10% glycerol, 150 mM NaCl, 50 mM Tris pH 7.5, 0.5 mM DTT), five washes; immunoblot

binding: binds
B1: NIMA (never in mitosis gene A)-related kinase 9 (protein, UniProt Q8TD19 1-979)
chain: MSVLGEYERHCDSINSDFGSESGGCGDSSPGPSASQGPRAGGGAAEQEELHYIPIRVLGRGAFGEATLYRRTEDDSLVVWKEVDLTRLSEKERRDALNEIVILALLQHDNIIAYYNHFMDNTTLLIELEYCNGGNLYDKILRQKDKLFEEEMVVWYLFQIVSAVSCIHKAGILHRDIKTLNIFLTKANLIKLGDYGLAKKLNSEYSMAETLVGTPYYMSPELCQGVKYNFKSDIWAVGCVIFELLTLKRTFDATNPLNLCVKIVQGIRAMEVDSSQYSLELIQMVHSCLDQDPEQRPTADELLDRPLLRKRRREMEEKVTLLNAPTKRPRSSTVTEAPIAVVTSRTSEVYVWGGGKSTPQKLDVIKSGCSARQVCAGNTHFAVVTVEKELYTWVNMQGGTKLHGQLGHGDKASYRQPKHVEKLQGKAIRQVSCGDDFTVCVTDEGQLYAFGSDYYGCMGVDKVAGPEVLEPMQLNFFLSNPVEQVSCGDNHVVVLTRNKEVYSWGCGEYGRLGLDSEEDYYTPQKVDVPKALIIVAVQCGCDGTFLLTQSGKVLACGLNEFNKLGLNQCMSGIINHEAYHEVPYTTSFTLAKQLSFYKIRTIAPGKTHTAAIDERGRLLTFGCNKCGQLGVGNYKKRLGINLLGGPLGGKQVIRVSCGDEFTIAATDDNHIFAWGNGGNGRLAMTPTERPHGSDICTSWPRPIFGSLHHVPDLSCRGWHTILIVEKVLNSKTIRSNSSGLSIGTVFQSSSPGGGGGGGGGEEEDSQQESETPDPSGGFRGTMEADRGMEGLISPTEAMGNSNGASSSCPGWLRKELENAEFIPMPDSPSPLSAAFSESEKDTLPYEELQGLKVASEAPLEHKPQVEASSPRLNPAVTCAGKGTPLTPPACACSSLQVEVERLQGLVLKCLAEQQKLQQENLQIFTQLQKLNKKLEGGQQVGMHSKGTQTAKEEMEMDPKPDLDSDSWCLLGTDSCRPSL
